In patent US20240108747A1, “EXTRACELLULAR VESICLE CONJUGATES AND USES THEREOF” (LONZA SALES AG, priority 2019, published 2024):
Some of these results come from one statement about several compounds together. Some compounds share one range, which may span the group rather than tell each member.

By UniProt entry, the sequences of proteins in these tests, tags left out.
UniProt Q86WV6, whole entry H232R: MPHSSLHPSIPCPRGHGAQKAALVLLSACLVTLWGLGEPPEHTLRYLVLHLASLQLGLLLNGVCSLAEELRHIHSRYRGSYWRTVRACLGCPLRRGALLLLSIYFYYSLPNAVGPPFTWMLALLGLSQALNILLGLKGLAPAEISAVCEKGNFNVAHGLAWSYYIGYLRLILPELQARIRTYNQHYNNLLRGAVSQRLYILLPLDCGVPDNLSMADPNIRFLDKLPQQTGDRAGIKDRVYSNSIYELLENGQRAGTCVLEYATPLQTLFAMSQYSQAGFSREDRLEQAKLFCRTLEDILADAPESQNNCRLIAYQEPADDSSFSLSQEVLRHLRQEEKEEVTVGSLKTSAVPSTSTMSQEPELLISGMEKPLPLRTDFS

Biological target: T1, STING (Homo sapiens, UniProt Q86WV6)
T1 construct: 500,000 PBMCs were plated in a well of a 96-well plate and cultured overnight with the test sample; endogenous in cells; host or cells: human PBMCs from healthy donors
Test: PBMC assay of STING agonism (IFNβ release into supernatant, ELISA)
Format: cell-based
Details: for increase in potency when exosome-associated: compound loaded on exosomes vs free compound, PBMCs from three healthy human donors, FIG. 2; for increase (shift) in potency when attached/coupled to exosomes: loaded on exosomes vs free, PBMCs from two healthy human donors, FIG. 3A-3C

SMILES | increase in potency when exosome-associated | increase (shift) in potency when attached/coupled to exosomes
CC(NC(=O)C(NC(=O)CCCCCN1C(=O)C=CC1=O)C(C)C)C(=O)Nc1ccc(CSP2(=O)OC[C@H]3O[C@@H](n4cnc5c(N)ncnc54)[C@H](OP(=O)(O)OC[C@H]4O[C@@H](n5cnc6c(N)ncnc65)[C@H](F)[C@@H]4O2)[C@@H]3O)cc1 (stereo partly shown) [CP227] | 3-4 log | more than 3 log
CC(C)C(NC(=O)CCCCCN1C(=O)C=CC1=O)C(=O)NC(CCCNC(N)=O)C(=O)Nc1ccc(CS[P@]2(=O)OC[C@H]3O[C@@H](n4cnc5c(N)ncnc54)[C@H](O[P@](=O)(O)OC[C@H]4O[C@@H](n5cnc6c(N)ncnc65)[C@H](F)[C@@H]4O2)[C@@H]3O)cc1 (stereo partly shown) [CP229] | 3-4 log | more than 3 log
